The supplement of paper PMC10727501
Some of the results follow. This data set is noisy: repeats of one test often differ as much as different tests do.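 Free-swimming zebrafish larvae were assessed for O-bend response probability to dark flashes (naive: first five; training: remaining flashes across four 60-flash blocks; test: later 60-flash block) and for OMR turning toward alternating leftward/rightward LED motion. Six treated larvae were compared against sixty 0.1% DMSO controls; hits required |SSMD|≥2.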

Columns and labels:
Conditions in all cases: 10 µM; pre-incubation: 30-90 min
[1] = tested on: Danio rerio larvae (5 dpf, TLF); assay: OMR-Perf (SSMD vs DMSO vehicle); higher = higher than vehicle (e.g. higher dark-flash O-bend response probability, or better optomotor performance)
[2] = tested on: Danio rerio larvae (5 dpf, TLF); assay: Prob-Test (SSMD vs DMSO vehicle); higher = higher than vehicle (e.g. higher dark-flash O-bend response probability, or better optomotor performance)
[3] = tested on: Danio rerio larvae (5 dpf, TLF); assay: Prob-Naive (SSMD vs DMSO vehicle); higher = higher than vehicle (e.g. higher dark-flash O-bend response probability, or better optomotor performance)
[4] = tested on: Danio rerio larvae (5 dpf, TLF); assay: Prob-Train (SSMD vs DMSO vehicle); higher = higher than vehicle (e.g. higher dark-flash O-bend response probability, or better optomotor performance)

| Structure (SMILES) | OMR-Perf [1] | Prob-Test [2] | Prob-Naive [3] | Prob-Train [4] |
| --- | --- | --- | --- | --- |
| COc1ccc2[nH]cc(CCNC(C)=O)c2c1 [Melatonin] | -0.324 | -0.848 | -0.73 | -2.42 |
| C1N2CN3CN1CN(C2)C3 [Methenamine] | -0.394 | -0.565 | 0 | -0.3 |
| COc1ccccc1N1CCN(CCN2C(=O)CC3(CCCC3)CC2=O)CC1.Cl.Cl | -0.98 | -1.1 | -0.835 | -0.885 |
| Cc1ccnc2c1NC(=O)c1cccnc1N2C1CC1 [Nevirapine] | 0.29 | 0.313 | 0.239 | 0.0721 |
| CC(C)c1nc(N(C)S(C)(=O)=O)nc(-c2ccc(F)cc2)c1C=C[C@@H](O)C[C@@H](O)CC(=O)[O-].CC(C)c1nc(N(C)S(C)(=O)=O)nc(-c2ccc(F)cc2)c1C=C[C@@H](O)C[C@@H](O)CC(=O)[O-].[Ca+2] [Rosuvastatin Calcium] | -0.213 | -0.318 | -0.0555 | 0.0689 |
| Cl.O=C(c1ccc(OCCN2CCCCC2)cc1)c1c(-c2ccc(O)cc2)sc2cc(O)ccc12 [Raloxifene HCl] | -0.379 | -0.204 | -0.493 | -0.395 |
| CC1=NN(c2ccccc2)C(=O)C1 [Edaravone] | -0.141 | 0.113 | 0.506 | 0.205 |
| C=C[C@@]1(C)C[C@@H](OC(=O)CS[C@@H]2C[C@H]3CC[C@@H](C2)N3C)[C@@]2(C)[C@@H]3C(=O)CC[C@@]3(CC[C@@H]2C)[C@@H](C)[C@@H]1O [Retapamulin] | -0.445 | 0.178 | 0.204 | -0.0912 |
| Cc1csc(-c2nnc(Nc3ccc(Oc4ncccc4-c4ccnc(N)n4)cc3)c3ccccc23)c1 | -0.668 | -0.195 | -0.908 | -0.859 |
| CCCc1cc(=O)[nH]c(=S)[nH]1 [Propylthiouracil] | -0.555 | -0.023 | 0.0498 | 0.0569 |
| Cc1c(CN2CCN(C(=O)[C@H](C)O)CC2)sc2c(N3CCOCC3)nc(-c3cnc(N)nc3)nc12 | -0.371 | 0.21 | -0.283 | -0.072 |
| C[C@@]1(c2nc3c(C(N)=O)cccc3[nH]2)CCCN1 [Veliparib (ABT-888)] | -0.00536 | 0.108 | -0.133 | -0.223 |
| CC1(C)S[C@H]2[C@@H](NC(=O)[C@@H](NC(=O)N3CCN(S(C)(=O)=O)C3=O)c3ccccc3)C(=O)N2[C@H]1C(=O)[O-].[Na+] [Mezlocillin Sodium] | -0.191 | 0.199 | 0.287 | 0.135 |
| CNC(=O)Nc1ccc(-c2nc(N3CC4CCC(C3)O4)c3cnn(C4CCC5(CC4)OCCO5)c3n2)cc1 | -0.277 | 0.392 | -0.397 | 0.162 |
| Cl.Cl.NC1(c2ccc(-c3nc4ccn5c(=O)[nH]nc5c4cc3-c3ccccc3)cc2)CCC1 | -0.477 | 0.834 | 0.568 | 0.471 |
| CCOc1cc(CC(=O)N[C@@H](CC(C)C)c2ccccc2N2CCCCC2)ccc1C(=O)O [Repaglinide] | -0.441 | -0.018 | 0.271 | 0.303 |
| CN1CCc2c(c3ccccc3n2Cc2ccc(C(=O)NO)cc2)C1 [Tubastatin A] | 0.374 | -0.135 | 0.587 | -0.0929 |
| CCCNC(C)C(=O)Nc1ccccc1C (stereo not given) [Prilocaine] | 0.238 | -0.221 | 0.184 | 0.259 |
| C[C@H]1C(=O)O[C@H]2[C@@H](O)C34[C@@H]5C[C@@H](C(C)(C)C)C36[C@@H](OC(=O)[C@H]6O)O[C@]4(C(=O)O5)[C@@]12O (stereo not given in full) [Ginkgolide B] | -0.536 | 0.336 | 0.233 | -0.0617 |
| N[C@H]1CONC1=O [D-Cycloserine] | -0.459 | -0.0442 | 0.131 | -0.196 |
| O=C(O)c1ccccc1 [Benzoic Acid] | -0.0599 | 0.598 | 0.306 | -0.0497 |
| Cc1cccc(Nc2cc(Cl)nc(SCC(=O)O)n2)c1C | 0.26 | 0.0161 | 0.0696 | 0.00616 |
| Cc1nnc(NS(=O)(=O)c2ccc(N)cc2)s1 [Sulfamethizole] | -0.111 | -0.249 | 0.402 | 0.336 |
| COc1c2occc2cc2ccc(=O)oc12 [Methoxsalen] | 0.258 | -0.302 | -0.782 | -1.16 |
| CN1CCN(C(c2ccccc2)c2ccccc2)CC1.Cl.Cl [Cyclizine 2HCl] | -0.356 | 0.763 | 0.185 | 0.87 |

Nothing new here: two of the compounds above.

| Structure (SMILES) | OMR-Perf [1] | Prob-Test [2] | Prob-Naive [3] | Prob-Train [4] |
| --- | --- | --- | --- | --- |
| Cc1cccc(Nc2cc(Cl)nc(SCC(=O)O)n2)c1C | 0.26 | 0.0161 | 0.0696 | 0.00616 |
| Cc1nnc(NS(=O)(=O)c2ccc(N)cc2)s1 [Sulfamethizole] | -0.111 | -0.249 | 0.402 | 0.336 |
